PubChem BioAssay AID652259 – Drosophila RNAi Screening Center | 2013

Screen: 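Identify new Wingless signalling regulators in fly cells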 (primary screen)
Cell system: Drosophila clone 8 imaginal disc epithelial cells
Reagents: long dsRNA against Drosophila genes
Conditions: pathway stimulated by co-transfected Wingless expression plasmid
Detection: 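Firefly luciferase from a tcf-site Wingless reporter, measured alongside co-transfected Renilla luciferase that tracks transfection; pathway stimulated by a Wingless plasmid; the firefly-to-Renilla ratio is not deposited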
Direction: firefly reporter light: higher = more Wg reporter light, before normalisation; Renilla control light: higher = more transfected or surviving cells
Hit rule: 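a knock-down is a candidate when at least two out of four statistical tests show it departing from its plate mean; one test alone signals a weak candidate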
Meaning of the calls: active = candidate regulator (raises or lowers reporter); inactive = not a candidate
The screen tested about 22,000 reagents; shown is a random part of those with a known target gene and a result. Over the whole deposit, 233 (1.1%) are marked active. 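Light values are raw, unnormalised plate reads; the ratio scores behind the reporter calls were not deposited.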 A plus sign joins genes that one reagent is predicted to hit. Not stated in the record: the amount of reagent, the time to read-out, the dose of the treatment.

Gene | dsRNA | reporter change call, replicate 1 | firefly reporter light, replicate 1 | firefly reporter light, replicate 2 | Renilla control light, replicate 1 | Renilla control light, replicate 2 | outcome
CG12438 | DRSC02167 | – | 2233 | 6274 | 518 | 2804 | inactive
Naprt | DRSC00630 | – | 14297 | – | 6001 | – | inactive
CG30275 | DRSC04163 | – | 2775 | 7351 | 901 | 3045 | inactive
CG14605 | DRSC12549 | – | 11834 | – | 3206 | – | inactive
CG3592 | DRSC18315 | – | 19980 | – | 13072 | – | inactive
Scp2 | DRSC13166 | – | 4748 | – | 1952 | – | inactive
Scp2 | DRSC16854 | – | 15466 | – | 3350 | – | inactive
udt | DRSC14214 | – | 14600 | – | 12514 | – | inactive
Arl2 | DRSC14117 | – | 14245 | – | 3548 | – | inactive
CG34428 | DRSC10119 | – | 5552 | – | 2312 | – | inactive
Snx27 | DRSC17786 | – | 26964 | – | 12589 | – | inactive
Snx27 | DRSC18282 | – | 24965 | – | 9585 | – | inactive
Snx27 | DRSC18284 | – | 16701 | – | 8672 | – | inactive
CG11109 | DRSC11633 | – | 8208 | – | 3093 | – | inactive
CG18294 + 825-Oak + CG32214 + 2 more | DRSC22210 | – | 7.08e5 | 6.94e5 | 3.02e5 | 3.27e5 | inactive
fru | DRSC16951 | Wg reporter activity raised | 18412 | – | 1328 | – | active
fru | DRSC16952 | – | 25018 | – | 7404 | – | inactive
fru | DRSC16953 | – | 17149 | 7.17e5 | 5079 | 3.66e5 | inactive
fru | DRSC21600 | – | 4.33e5 | 4.69e5 | 2.31e5 | 1.79e5 | inactive
dsf | DRSC03524 | – | 1617 | 4705 | 512 | 647 | inactive
CG8236 | DRSC16399 | – | 21120 | – | 6160 | – | inactive
CG34112 | DRSC12235 | – | 15564 | – | 4119 | – | inactive
Nlg3 | DRSC12477 | – | 4411 | – | 646 | – | inactive
Nlg3 | DRSC12524 | – | 10577 | – | 2514 | – | inactive
Nlg3 | DRSC12540 | – | 10716 | – | 2370 | – | inactive
Nlg3 | DRSC12574 | Wg reporter activity lowered | 4738 | – | 3845 | – | active
CG13334 | DRSC06369 | – | 7508 | – | 1971 | – | inactive
CG17580 | DRSC06683 | – | 7833 | – | 2672 | – | inactive
beat-IV | DRSC14195 | – | 2488 | 6333 | 1397 | 1959 | inactive
beat-IV | DRSC14673 | – | 20037 | – | 10235 | – | inactive
CG31636 | DRSC02276 | – | 2484 | 5643 | 916 | 2342 | inactive
subdued | DRSC15137 | – | 1569 | 4493 | 859 | 1585 | inactive
abd-A | DRSC13179 | – | 2356 | – | 777 | – | inactive
abd-A | DRSC16897 | – | 8662 | – | 450 | – | inactive
CG4080 | DRSC10398 | – | 3185 | – | 1330 | – | inactive
Ir40a | DRSC03732 | – | 2880 | 4816 | 1179 | 2009 | inactive
Ir40a | DRSC03733 | – | 3366 | 7453 | 1037 | 2146 | inactive
asRNA:CR43426 | DRSC11587 | – | 2576 | – | 1041 | – | inactive
CG17571 | DRSC01768 | – | 17977 | – | 8913 | – | inactive
CG17571 | DRSC03755 | – | 2648 | 5005 | 890 | 2372 | inactive
SmE | DRSC02680 | – | 1577 | 5323 | 515 | 1761 | inactive
CG18628 | DRSC10328 | – | 9379 | – | 4213 | – | inactive
CG3597 | DRSC00617 | – | 2664 | 8118 | 916 | 2578 | inactive
Dnaaf3 | DRSC06684 | – | 8088 | – | 2096 | – | inactive
CG15888 | DRSC15125 | – | 17008 | – | 4330 | – | inactive
14-3-3epsilon | DRSC16370 | – | 9488 | – | 1712 | – | inactive
CG14932 | DRSC02414 | – | 3328 | 5712 | 1228 | 2756 | inactive
Suv3 | DRSC12335 | – | 6816 | – | 2939 | – | inactive
CG9547 | DRSC03260 | – | 14058 | – | 6108 | – | inactive
CG4045 | DRSC18518 | – | 2299 | 5303 | 1296 | 2544 | inactive
CG15332 | DRSC18015 | – | 12192 | – | 6473 | – | inactive
beat-IIIc | DRSC02438 | – | 3910 | 5666 | 1609 | 3616 | inactive
beat-IIIc | DRSC02949 | – | 2581 | 6829 | 1584 | 3829 | inactive
CG33340 | DRSC14615 | – | 13864 | – | 11393 | – | inactive
CG9920 | DRSC16578 | – | 18728 | – | 3888 | – | inactive
BBS9 | DRSC04257 | – | 2439 | 8011 | 867 | 3381 | inactive
HLH4C | DRSC18670 | – | 28824 | – | 18259 | – | inactive
HLH4C | DRSC21322 | – | 8.21e5 | 8.77e5 | 5.14e5 | 4.09e5 | inactive
Patronin | DRSC06756 | – | 5789 | – | 2338 | – | inactive
Patronin | DRSC06757 | – | 7366 | – | 2119 | – | inactive
Patronin | DRSC06994 | – | 6065 | – | 2488 | – | inactive
CG7394 | DRSC10835 | – | 6492 | – | 2661 | – | inactive
CG30076 | DRSC05494 | – | 17378 | – | 14899 | – | inactive
kl-2 | DRSC21136 | – | 12363 | – | 6676 | – | inactive
bgm | DRSC03495 | – | 12573 | – | 1808 | – | inactive
htl | DRSC16968 | – | 2680 | 6432 | 1099 | 1623 | inactive
Prosbeta2R1 | DRSC18154 | – | 17984 | – | 10539 | – | inactive
Socs36E | DRSC02455 | – | 13874 | – | 4663 | – | inactive
cu | DRSC15643 | – | 9932 | – | 3668 | – | inactive
cu | DRSC15648 | – | 25003 | – | 7971 | – | inactive
Sgp | DRSC02195 | – | 8045 | – | 2033 | – | inactive
CG10466 | DRSC02060 | – | 3732 | 10315 | 845 | 4235 | inactive
dati | DRSC17128 | – | 2025 | 6275 | 1043 | 1783 | inactive
dati | DRSC17140 | – | 15205 | – | 14121 | – | inactive
dati | DRSC17153 | – | 20019 | – | 16819 | – | inactive

Reprinted from the entries so far, 7 entries:
Gene | dsRNA | reporter change call, replicate 1 | firefly reporter light, replicate 1 | firefly reporter light, replicate 2 | Renilla control light, replicate 1 | Renilla control light, replicate 2 | outcome
Socs36E | DRSC02455 | – | 13874 | – | 4663 | – | inactive
cu | DRSC15643 | – | 9932 | – | 3668 | – | inactive
cu | DRSC15648 | – | 25003 | – | 7971 | – | inactive
Sgp | DRSC02195 | – | 8045 | – | 2033 | – | inactive
CG10466 | DRSC02060 | – | 3732 | 10315 | 845 | 4235 | inactive
dati | DRSC17128 | – | 2025 | 6275 | 1043 | 1783 | inactive
dati | DRSC17140 | – | 15205 | – | 14121 | – | inactive
